For 39 compounds, AC50 results are on record in PubChem BioAssay AID445 (National Center for Advancing Translational Sciences (NCATS), 2006).

A short description of this test: IkB Signaling. Particulars: ABC-DLBCL IkBa-CBG/CBR dual luciferase ratio (green luciferase fused to IkBa over red control in OCI-Ly3 lymphoma cells), 4 h. In a few lines: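 In this assay, an IκBα–CBG68 fusion accumulates when IKK-driven degradation is blocked; native CBR normalizes for cell number. OCI-Ly3 cells were treated 4 h with compound and doxycycline, then green and red light read after Chroma-Glo addition.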
Where [1] appears, read: measured here: control luc red channel unless noted.

Usually AC50 stands for the midpoint of the concentration-response curve, whichever way the signal moves.

Some of the results follow. The main result of the screen is listed elsewhere. These columns were measured beside it and carry no call. The list favours compounds with an active or inconclusive main result. Potencies come from curve fits of mixed quality, noted in brackets.

For `CCC(c1nnnn1C1CCCC1)N(Cc1cccs1)Cc1cc2cccc(C)c2[nH]c1=O` (stereo not given), the AC50 under setting [1] is 3.98 µM [falling, partial curve].
On the same count and under the same terms, then `CCOc1ccc(-c2noc(CSc3nnc(Cc4ccccc4)n3-c3ccc(F)cc3)n2)cc1`, with 20 µM [falling, partial curve]; and `Cc1cccc(N2CCN(c3ncnc4c3cnn4-c3ccc(Cl)cc3)CC2C)c1` (stereo not given), with 3.16 µM [falling, partial curve, poor fit].
Same read-out and setting: next, `COc1cccc(C(=O)Nc2c3c(nn2-c2ccc(C)cc2C)CS(=O)(=O)C3)c1OC`: 3.16 µM [rising, partial curve]; `CCC(=O)Nc1ccccc1C(=O)OCc1cc(=O)n2cc(C)sc2n1`: 20 µM [falling, partial curve].
Take `CC(C)CCN1C(=O)c2ccccc2CC1(C)C(=O)NC1CCCCC1` (stereo not given): under setting [1], the AC50 was 39.8 µM [falling, single point].
Same read-out and setting: then `CCN(CC)S(=O)(=O)c1cccc(-c2nnc(SCCOc3ccccc3C)o2)c1`, with 15.8 µM [falling, partial curve]; and `O=C(Nc1nc(-c2cc(Cl)sc2Cl)cs1)c1cccs1`, with 15.8 µM [falling, partial curve]; and `CC1CC(=O)N(CC(=O)Nc2ccc(OC(F)(F)F)cc2)c2ccccc2S1` (stereo not given), with 12.6 µM [falling, partial curve].
For `CCCN1CCN(C(=O)Cn2ncc3c4ccccc4n(Cc4cccc(Cl)c4)c3c2=O)CC1`, the AC50 under setting [1] was 12.6 µM [falling, partial curve].
Consider `Cc1cccc(N(C)C(=O)c2cc3c(=O)oc4ccc(C)cc4c3s2)c1`, for which the AC50 under setting [1] was 31.6 µM [rising, partial curve].
With `O=C(Nc1c(C(=O)N2CCN(c3ccccc3)CC2)oc2ccccc12)c1ccccc1F`, under setting [1], the AC50 is 39.8 µM [falling, single point].
The same measure, in the same setting: next, `Cc1ccc(CCNC(=O)c2cc3cc(S(=O)(=O)N4CCCCC4)ccc3n2C)cc1`: 5.01 µM [falling, partial curve].
`COc1ccc(-c2cc(C(=O)Nc3sc4c(c3C#N)CCCC4)no2)cc1OC`: the AC50 under setting [1] was 0.02 µM [rising, full curve, poor fit].
For the compound `COc1cccc(NC(=O)c2ccc3nc(Cc4ccccc4)oc3c2)c1`, the AC50 under setting [1] was 15.8 µM [falling, partial curve].
For `Cc1ccccc1CNc1ncnc2c1ncn2[C@@H]1O[C@@H](CO)[C@H](O)[C@@H]1O`, the AC50 is 1.26 µM [rising, full curve, poor fit] (measured here: IkB-luc green channel) and 0.316 µM [rising, full curve, poor fit] (measured here: control luc red channel).
In the case of `O=C(Nc1ccc(N2CCN(C(=O)c3ccccc3)CC2)cc1)c1ccc(Br)o1`, the AC50 under setting [1] is 20 µM [falling, partial curve].
Same read-out and setting: next, `O=C(CSc1nc2cc(S(=O)(=O)N3CCOCC3)ccc2o1)NC1CCCc2ccccc21` (stereo not given): 39.8 µM [falling, single point]; `CCCCc1ccc(NC(=O)C2(C)Cc3ccccc3C(=O)O2)cc1` (stereo not given): 20 µM [falling, partial curve].
On to `Cc1cccc(-c2nc(C(N)=O)c3c(n2)n(-c2ccc4c(c2)OCO4)c(=O)n3C)c1`, for which the AC50 under setting [1] was 0.0794 µM [falling, full curve, poor fit].
With `CCc1ccc(C2CC(=O)Oc3c2c(=O)n(C)c2ccccc32)cc1` (stereo not given), the concentration at half-maximal activity (AC50) under setting [1] is 25.1 µM [falling, partial curve].
Same read-out and setting: then `CCOC(=O)CSc1nc2ccc(NC(=O)COc3ccccc3C)cc2s1`, with 2 µM [falling, full curve]; and `O=C(Nc1ccc(Cl)cc1)c1cc2c(-c3ccccc3)nn(-c3ccccc3)c2s1`, with 15.8 µM [falling, single point].
Still for that read-out and setting: next, `CCOC(=O)c1c(NC(C)=O)c2c3c(sc2n1Cc1nc(-c2cccc(C)c2)oc1C)CCCC3`: 39.8 µM [falling, single point].
Consider `COc1cc(-c2cc(OC)c3c(C)oc(C)c3c(=O)c2)ccc1OC(=O)c1ccccc1F`, for which the AC50 under setting [1] was 1 µM [falling, full curve, poor fit].
In the case of `COc1ccccc1C(=O)NC1=NC(c2ccc(Br)cc2)CC(=O)N1` (stereo not given), the AC50 under setting [1] was 31.6 µM [falling, partial curve].
Same read-out and setting: next, `OCCCc1nc2n(n1)C(c1cccc(Cl)c1)C=C(c1ccccc1)N2` (stereo not given): 10 µM [falling, partial curve]; `CCCc1cc(C(=O)Nc2c(C)nn(Cc3ccc(Cl)c(Cl)c3)c2C)no1`: 12.6 µM [falling, partial curve].
As for `Nc1n[nH]c(-c2ccccc2)c1-c1ccccc1`, the AC50 under setting [1] is 6.31 µM [falling, partial curve].
As for `Cc1nn(-c2ccccc2)c(OC(=O)C(C)(C)C)c1Sc1ccccc1`, the AC50 under setting [1] is 2.51 µM [falling, full curve, poor fit].
On to `O=c1oc2ccccc2cc1-c1cn2cc(Cc3ccccc3F)sc2n1`, for which the AC50 under setting [1] is 0.316 µM [rising, full curve].
Consider `Cc1ccc(Cn2c(SCc3ccc(C(=O)NC4CCCC4)cc3)nc3ccncc32)cc1`, for which the AC50 under setting [1] is 25.1 µM [falling, single point].
With `Cc1nnc(NC(=O)C(=O)c2cc(C)n(-c3ccc(C)c(C)c3)c2C)s1`, the AC50 under setting [1] is 10 µM [falling, partial curve].
As to `Cc1cc(C(=O)CSc2nnc(-c3ccccc3F)o2)c(C)n1Cc1cccs1`, the AC50 under setting [1] is 3.98 µM [falling, full curve, poor fit].
With `Cc1ccc(C(=O)Nc2ccc3oc(-c4ccncc4)nc3c2)c(Cl)c1`, the AC50 under setting [1] was 3.16 µM [falling, full curve].
`Cc1nc2ccc(S(=O)(=O)N(C)CC(=O)N3CCc4ccccc43)cc2s1`: the AC50 under setting [1] is 25.1 µM [falling, partial curve].
On to `Cn1c(=O)oc2cc(S(=O)(=O)N3CCN(C(=O)c4ccco4)CC3)ccc21`, for which, under setting [1], the AC50 was 5.01 µM [falling, partial curve].
Take `CCc1ccc(-n2c(=O)c3cccnc3n2CC(=O)Nc2ccccc2C(F)(F)F)cc1`: the AC50 under setting [1] was 0.0251 µM [rising, full curve, poor fit].
The same measure, in the same setting: then `N#Cc1c(NC(=O)CS(=O)(=O)c2ccc(Cl)cc2)sc2c1CCCCC2`, with 3.98 µM [falling, partial curve].
